The supplement of paper PMC10849652
The list shows a part of the results.

Chains of the proteins cited; added tags and fusions are not shown. Lines headed by an entry give the natural chain unless they say otherwise; changes in a name come on top.
UniProt Q8N8Q9: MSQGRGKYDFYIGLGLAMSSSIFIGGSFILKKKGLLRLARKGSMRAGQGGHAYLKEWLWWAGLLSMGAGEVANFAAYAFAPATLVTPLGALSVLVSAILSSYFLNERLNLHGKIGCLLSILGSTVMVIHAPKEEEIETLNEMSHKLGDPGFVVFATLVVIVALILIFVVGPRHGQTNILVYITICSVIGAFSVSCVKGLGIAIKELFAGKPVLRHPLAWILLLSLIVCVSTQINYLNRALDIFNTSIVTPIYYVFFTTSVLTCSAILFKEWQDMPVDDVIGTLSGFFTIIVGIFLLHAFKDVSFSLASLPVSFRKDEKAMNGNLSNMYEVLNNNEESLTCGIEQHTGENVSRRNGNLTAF
UniProt Q9Y6M9, whole entry, looked up: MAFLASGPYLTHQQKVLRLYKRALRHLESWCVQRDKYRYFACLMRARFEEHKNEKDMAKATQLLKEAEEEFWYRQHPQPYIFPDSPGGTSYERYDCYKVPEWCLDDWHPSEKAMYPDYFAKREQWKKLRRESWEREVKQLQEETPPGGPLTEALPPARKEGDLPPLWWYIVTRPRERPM
UniProt Q8N5F7: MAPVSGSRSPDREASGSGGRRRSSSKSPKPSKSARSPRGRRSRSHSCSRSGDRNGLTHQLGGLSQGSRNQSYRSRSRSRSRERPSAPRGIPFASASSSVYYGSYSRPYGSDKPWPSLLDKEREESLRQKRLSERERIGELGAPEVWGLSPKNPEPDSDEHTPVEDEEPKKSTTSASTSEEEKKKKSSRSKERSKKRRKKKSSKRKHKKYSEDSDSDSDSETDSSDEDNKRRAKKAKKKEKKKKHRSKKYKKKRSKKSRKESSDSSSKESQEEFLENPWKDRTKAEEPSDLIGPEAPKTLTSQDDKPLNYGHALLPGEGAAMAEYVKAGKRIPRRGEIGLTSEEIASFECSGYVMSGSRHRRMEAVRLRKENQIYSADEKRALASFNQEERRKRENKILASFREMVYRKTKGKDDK
UniProt O76041: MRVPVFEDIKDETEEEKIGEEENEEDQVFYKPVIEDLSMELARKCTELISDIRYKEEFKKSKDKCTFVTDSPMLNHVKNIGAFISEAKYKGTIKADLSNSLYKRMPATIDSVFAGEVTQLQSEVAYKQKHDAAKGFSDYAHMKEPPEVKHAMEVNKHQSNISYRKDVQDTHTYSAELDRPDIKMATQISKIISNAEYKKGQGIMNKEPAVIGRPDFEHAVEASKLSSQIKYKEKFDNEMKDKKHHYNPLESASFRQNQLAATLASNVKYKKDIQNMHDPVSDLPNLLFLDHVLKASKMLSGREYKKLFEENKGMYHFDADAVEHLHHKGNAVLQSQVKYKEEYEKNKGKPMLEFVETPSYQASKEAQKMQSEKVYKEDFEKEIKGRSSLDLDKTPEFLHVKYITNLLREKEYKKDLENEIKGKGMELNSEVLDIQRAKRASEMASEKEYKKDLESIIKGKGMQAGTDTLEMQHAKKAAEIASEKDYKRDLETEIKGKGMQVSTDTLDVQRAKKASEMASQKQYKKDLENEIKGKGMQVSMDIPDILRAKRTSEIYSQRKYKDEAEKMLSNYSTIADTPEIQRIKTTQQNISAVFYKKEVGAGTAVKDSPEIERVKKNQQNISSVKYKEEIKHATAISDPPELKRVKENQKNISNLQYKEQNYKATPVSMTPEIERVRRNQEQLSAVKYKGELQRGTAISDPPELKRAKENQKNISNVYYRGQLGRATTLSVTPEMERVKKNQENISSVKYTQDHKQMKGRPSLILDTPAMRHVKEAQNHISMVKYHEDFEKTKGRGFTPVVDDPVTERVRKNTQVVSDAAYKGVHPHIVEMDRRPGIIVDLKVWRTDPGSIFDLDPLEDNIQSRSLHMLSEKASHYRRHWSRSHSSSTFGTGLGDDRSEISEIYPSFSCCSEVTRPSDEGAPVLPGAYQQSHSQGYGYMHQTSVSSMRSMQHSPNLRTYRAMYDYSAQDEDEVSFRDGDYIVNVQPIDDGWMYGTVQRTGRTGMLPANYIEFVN
UniProt Q8TDX7: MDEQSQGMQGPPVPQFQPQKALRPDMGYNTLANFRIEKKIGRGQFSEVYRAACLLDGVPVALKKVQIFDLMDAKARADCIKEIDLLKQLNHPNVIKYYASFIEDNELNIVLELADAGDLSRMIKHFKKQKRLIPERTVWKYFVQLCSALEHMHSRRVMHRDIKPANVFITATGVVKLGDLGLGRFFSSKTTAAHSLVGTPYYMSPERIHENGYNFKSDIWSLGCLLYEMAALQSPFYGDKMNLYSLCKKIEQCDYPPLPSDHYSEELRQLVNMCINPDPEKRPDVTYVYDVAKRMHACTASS
UniProt O95169, whole entry, looked up: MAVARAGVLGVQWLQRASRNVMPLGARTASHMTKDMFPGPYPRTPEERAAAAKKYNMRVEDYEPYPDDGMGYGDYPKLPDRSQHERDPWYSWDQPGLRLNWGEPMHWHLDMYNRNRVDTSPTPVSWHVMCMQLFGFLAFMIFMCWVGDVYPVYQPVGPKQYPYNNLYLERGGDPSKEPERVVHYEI
UniProt P08651, whole entry, looked up: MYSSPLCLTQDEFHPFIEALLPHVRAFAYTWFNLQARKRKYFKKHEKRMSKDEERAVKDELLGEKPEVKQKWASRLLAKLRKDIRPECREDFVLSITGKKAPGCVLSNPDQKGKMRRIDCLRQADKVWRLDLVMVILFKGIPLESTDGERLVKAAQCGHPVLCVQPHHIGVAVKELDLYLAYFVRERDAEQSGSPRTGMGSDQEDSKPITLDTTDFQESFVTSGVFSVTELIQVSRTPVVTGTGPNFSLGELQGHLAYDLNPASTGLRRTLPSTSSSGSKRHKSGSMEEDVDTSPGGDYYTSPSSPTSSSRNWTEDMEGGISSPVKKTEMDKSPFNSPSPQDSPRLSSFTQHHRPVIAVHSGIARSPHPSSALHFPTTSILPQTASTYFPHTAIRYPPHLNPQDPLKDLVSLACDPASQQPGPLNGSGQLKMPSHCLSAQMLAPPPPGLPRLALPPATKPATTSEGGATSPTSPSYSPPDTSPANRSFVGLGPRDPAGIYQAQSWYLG
UniProt O00217, whole entry, looked up: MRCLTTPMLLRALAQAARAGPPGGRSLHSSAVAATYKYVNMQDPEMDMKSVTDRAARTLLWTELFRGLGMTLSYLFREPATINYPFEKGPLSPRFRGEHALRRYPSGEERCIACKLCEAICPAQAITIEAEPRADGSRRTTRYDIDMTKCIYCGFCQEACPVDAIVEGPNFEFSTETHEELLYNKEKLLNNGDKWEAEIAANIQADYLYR
UniProt Q5TEU4: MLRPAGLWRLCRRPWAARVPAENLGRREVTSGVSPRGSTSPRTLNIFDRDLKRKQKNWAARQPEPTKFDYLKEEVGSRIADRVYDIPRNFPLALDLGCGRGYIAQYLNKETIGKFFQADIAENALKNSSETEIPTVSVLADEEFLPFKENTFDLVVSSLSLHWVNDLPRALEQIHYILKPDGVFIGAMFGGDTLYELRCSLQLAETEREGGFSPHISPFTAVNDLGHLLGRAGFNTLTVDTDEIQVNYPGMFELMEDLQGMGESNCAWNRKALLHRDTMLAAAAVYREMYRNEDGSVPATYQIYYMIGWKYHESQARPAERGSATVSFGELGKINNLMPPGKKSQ
UniProt Q8NBF2: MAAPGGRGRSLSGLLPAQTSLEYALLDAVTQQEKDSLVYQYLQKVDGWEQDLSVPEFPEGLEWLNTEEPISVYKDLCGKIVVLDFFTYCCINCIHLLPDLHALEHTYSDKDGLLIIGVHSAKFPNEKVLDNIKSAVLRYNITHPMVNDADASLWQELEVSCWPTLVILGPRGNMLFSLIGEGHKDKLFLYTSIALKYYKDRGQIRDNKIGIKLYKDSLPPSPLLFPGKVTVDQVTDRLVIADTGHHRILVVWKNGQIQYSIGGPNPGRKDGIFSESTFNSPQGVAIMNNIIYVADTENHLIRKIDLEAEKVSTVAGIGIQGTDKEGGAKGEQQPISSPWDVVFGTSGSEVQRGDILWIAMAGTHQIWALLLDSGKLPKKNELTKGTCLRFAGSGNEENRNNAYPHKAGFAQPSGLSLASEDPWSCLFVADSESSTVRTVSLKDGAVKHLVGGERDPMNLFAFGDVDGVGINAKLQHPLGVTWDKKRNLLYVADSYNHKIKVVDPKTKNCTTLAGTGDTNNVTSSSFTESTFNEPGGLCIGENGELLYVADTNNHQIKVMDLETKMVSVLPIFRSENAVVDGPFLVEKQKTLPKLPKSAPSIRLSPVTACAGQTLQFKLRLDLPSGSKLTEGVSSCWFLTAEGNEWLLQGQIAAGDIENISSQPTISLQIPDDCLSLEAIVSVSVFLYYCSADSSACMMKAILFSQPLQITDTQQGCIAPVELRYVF
UniProt Q8NC96: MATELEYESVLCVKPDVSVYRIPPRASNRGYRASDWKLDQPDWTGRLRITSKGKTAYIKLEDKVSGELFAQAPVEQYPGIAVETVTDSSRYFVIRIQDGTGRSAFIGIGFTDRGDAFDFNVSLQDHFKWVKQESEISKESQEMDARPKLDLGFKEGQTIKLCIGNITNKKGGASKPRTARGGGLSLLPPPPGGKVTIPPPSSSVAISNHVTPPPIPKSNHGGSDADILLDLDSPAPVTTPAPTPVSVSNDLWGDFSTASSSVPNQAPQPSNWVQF
UniProt Q9UMS0: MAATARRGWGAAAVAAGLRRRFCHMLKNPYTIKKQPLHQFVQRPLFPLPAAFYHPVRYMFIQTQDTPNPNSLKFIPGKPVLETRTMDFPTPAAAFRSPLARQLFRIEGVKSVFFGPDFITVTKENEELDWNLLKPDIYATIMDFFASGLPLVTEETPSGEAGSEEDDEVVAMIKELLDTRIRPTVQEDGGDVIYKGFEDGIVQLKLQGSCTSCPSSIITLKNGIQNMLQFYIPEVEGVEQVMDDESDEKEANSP
UniProt Q9BU61: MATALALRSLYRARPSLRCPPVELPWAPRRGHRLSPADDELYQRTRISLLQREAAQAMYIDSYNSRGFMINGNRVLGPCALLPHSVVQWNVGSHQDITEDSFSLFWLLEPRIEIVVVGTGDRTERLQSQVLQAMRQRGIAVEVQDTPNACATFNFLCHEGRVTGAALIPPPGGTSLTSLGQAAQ
UniProt Q9UHB4: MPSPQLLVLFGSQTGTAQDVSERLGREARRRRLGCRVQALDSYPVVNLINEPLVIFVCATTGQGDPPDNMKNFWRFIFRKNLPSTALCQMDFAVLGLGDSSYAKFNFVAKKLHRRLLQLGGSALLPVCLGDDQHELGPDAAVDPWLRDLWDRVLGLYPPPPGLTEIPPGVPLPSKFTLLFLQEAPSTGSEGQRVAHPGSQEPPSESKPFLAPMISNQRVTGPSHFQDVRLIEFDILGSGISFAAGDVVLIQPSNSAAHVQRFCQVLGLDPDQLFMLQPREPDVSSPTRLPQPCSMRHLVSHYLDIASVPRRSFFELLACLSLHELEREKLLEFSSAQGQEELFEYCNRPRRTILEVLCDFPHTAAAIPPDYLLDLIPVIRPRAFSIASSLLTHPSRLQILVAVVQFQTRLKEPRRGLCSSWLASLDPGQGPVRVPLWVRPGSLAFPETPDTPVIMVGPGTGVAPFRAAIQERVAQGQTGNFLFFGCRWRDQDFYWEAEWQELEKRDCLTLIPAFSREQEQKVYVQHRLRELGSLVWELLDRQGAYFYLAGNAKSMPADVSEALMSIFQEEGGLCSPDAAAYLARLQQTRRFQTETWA
UniProt Q96IV0: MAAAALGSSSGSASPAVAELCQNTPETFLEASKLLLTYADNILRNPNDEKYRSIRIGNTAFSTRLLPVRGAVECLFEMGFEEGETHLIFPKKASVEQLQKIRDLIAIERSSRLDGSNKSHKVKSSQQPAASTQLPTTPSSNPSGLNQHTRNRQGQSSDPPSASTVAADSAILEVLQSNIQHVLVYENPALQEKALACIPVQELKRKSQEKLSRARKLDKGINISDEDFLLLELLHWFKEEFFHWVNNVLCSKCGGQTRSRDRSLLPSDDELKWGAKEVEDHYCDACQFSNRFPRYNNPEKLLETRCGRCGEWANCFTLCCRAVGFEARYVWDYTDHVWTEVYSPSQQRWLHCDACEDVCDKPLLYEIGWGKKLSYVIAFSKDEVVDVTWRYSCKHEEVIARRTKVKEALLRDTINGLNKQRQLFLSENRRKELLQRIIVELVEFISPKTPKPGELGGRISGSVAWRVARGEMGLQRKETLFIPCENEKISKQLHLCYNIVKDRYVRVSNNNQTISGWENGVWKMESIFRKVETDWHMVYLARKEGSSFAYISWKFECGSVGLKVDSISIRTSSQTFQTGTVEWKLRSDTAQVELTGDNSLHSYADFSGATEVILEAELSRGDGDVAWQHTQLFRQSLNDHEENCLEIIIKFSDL

Key:
Assay in all cases: log2 fold change, soluble protein after heating vs DMSO (PISA); higher = thermal stabilisation; K562 lysate, 10 uM; active = over 0.2 and 3.5 SD of the protein, either way, in both replicates (recomputed)
vemurafenib = compound: CCCS(=O)(=O)Nc1ccc(F)c(C(=O)c2c[nH]c3ncc(-c4ccc(Cl)cc4)cc23)c1F [vemurafenib]
In short: (§1)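 To prepare the extract, K562 pellets were dounce-homogenised in PBS pH 7.4 with 1 mM MgCl2, giving crude material at 1 mg/mL protein. This was treated with 10 μM compound for 30 min, then heated in aliquots for 3 min over 48°C-58°C before pooling and addition of NP-40 to 0.5% at 4°C. Centrifugation at 21,000xg for 90 min left soluble protein in the supernatant, which TMTpro 16plex LC-MS/MS quantified with equalised channel sums. Results are log-two fold changes in thermal stability compared with solvent controls, from duplicates.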

[1] = compound: CCCS(=O)(=O)Nc1ccc(F)c(C(=O)c2c[nH]c3ncc(Cl)cc23)c1F
In short: as §1

barasertib = compound: CCN(CCCOc1ccc2c(Nc3cc(CC(=O)Nc4cccc(F)c4)[nH]n3)ncnc2c1)CCOP(=O)(O)O [barasertib]
In short: as §1

[2] = compound: CC[C@@H]1C(=O)N(C)c2cnc(Nc3ccc(C(=O)NC4CCN(C)CC4)cc3OC)nc2N1C1CCCC1
In short: as §1

volasertib = compound: CC[C@@H]1C(=O)N(C)c2cnc(Nc3ccc(C(=O)N[C@H]4CC[C@H](N5CCN(CC6CC6)CC5)CC4)cc3OC)nc2N1C(C)C [volasertib]
In short: as §1

[3] = compound: CCn1c(C(=O)N(C2CC2)C2CC2)cc2c3c(ncn3C)c(Nc3cc(C)n(C)n3)nc21
In short: as §1

[4] = compound: CCn1cc(-c2ccnc3[nH]c(-c4cccc(CN(C)C)c4)cc23)c(-c2ccc(NC(=O)N(C)C)cc2)n1
In short: as §1

[5] = compound: CN1CCC(CNc2ccc3ncc(-c4cccc(OC(F)(F)F)c4)n3n2)CC1
In short: as §1

saracatinib = compound: CN1CCN(CCOc2cc(OC3CCOCC3)c3c(Nc4c(Cl)ccc5c4OCO5)ncnc3c2)CC1 [saracatinib]
In short: as §1

sotrastaurin = compound: CN1CCN(c2nc(C3=C(c4c[nH]c5ccccc45)C(=O)NC3=O)c3ccccc3n2)CC1 [sotrastaurin]
In short: as §1

Which log2 fold change (vemurafenib) does the source give for NIPA2 (UniProt Q8N8Q9) here?
Its log2 fold change is inactive: 0.064.

What about the log2 fold change [1] of the same target?
The log2 fold change was inactive: 0.081.

What about the log2 fold change (barasertib) of the same target?
The log2 fold change was inactive: -0.13.

What about the log2 fold change [2] of the same target?
Its log2 fold change is inactive: 0.106.

And the log2 fold change (volasertib)?
The log2 fold change was inactive: 0.025.

And the log2 fold change [3]?
The log2 fold change was inactive: 0.181.

What about the log2 fold change [4] of the same target?
The log2 fold change was inactive: -0.027.

And the log2 fold change [5]?
The log2 fold change was inactive: 0.169.

What about the log2 fold change (saracatinib) of the same target?
Its log2 fold change is inactive: 0.057.

And the log2 fold change (sotrastaurin)?
Its log2 fold change is inactive: 0.02.

For NDUFB9 (UniProt Q9Y6M9), which log2 fold change (vemurafenib) is on record?
Its log2 fold change is inactive: -0.037.

What about the log2 fold change [1] of the same target?
The log2 fold change was inactive: 0.026.

And the log2 fold change (barasertib)?
The log2 fold change was inactive: -0.001.

What about the log2 fold change [2] of the same target?
The log2 fold change was inactive: 0.008.

And the log2 fold change (volasertib)?
The log2 fold change was inactive: 0.007.

And the log2 fold change [3]?
The log2 fold change was inactive: -0.016.

And the log2 fold change [4]?
Its log2 fold change is inactive: 0.039.

What about the log2 fold change [5] of the same target?
Its log2 fold change is inactive: -0.049.

What about the log2 fold change (saracatinib) of the same target?
Its log2 fold change is inactive: 0.025.

What about the log2 fold change (sotrastaurin) of the same target?
Its log2 fold change is inactive: -0.021.

With NKAP (UniProt Q8N5F7) as the target, how does the log2 fold change (vemurafenib) read?
Its log2 fold change is inactive: 0.113.

What about the log2 fold change [1] of the same target?
Its log2 fold change is inactive: -0.093.

What about the log2 fold change (barasertib) of the same target?
Its log2 fold change is inactive: -0.045.

What about the log2 fold change [2] of the same target?
Its log2 fold change is inactive: 0.063.

What about the log2 fold change (volasertib) of the same target?
The log2 fold change was inactive: -0.006.

And the log2 fold change [3]?
Its log2 fold change is inactive: -0.001.

And the log2 fold change [4]?
Its log2 fold change is inactive: 0.072.

And the log2 fold change [5]?
Its log2 fold change is inactive: -0.02.

What about the log2 fold change (saracatinib) of the same target?
Its log2 fold change is inactive: 0.049.

What about the log2 fold change (sotrastaurin) of the same target?
The log2 fold change was inactive: 0.015.

Which results are given for NEBL (UniProt O76041)?
log2 fold change (vemurafenib): inactive: 0.034; log2 fold change [1]: inactive: -0.027; log2 fold change (barasertib): inactive: 0.066; log2 fold change [2]: inactive: 0.039; log2 fold change (volasertib): inactive: 0.014; log2 fold change [3]: inactive: -0.014; log2 fold change [4]: active: 0.29; log2 fold change [5]: inactive: -0.002; log2 fold change (saracatinib): inactive: -0.035; log2 fold change (sotrastaurin): inactive: 0.085

With NEK7 (UniProt Q8TDX7) as the target, how does the log2 fold change (vemurafenib) read?
Its log2 fold change is inactive: 0.086.

What about the log2 fold change [1] of the same target?
The log2 fold change was inactive: 0.024.

What about the log2 fold change (barasertib) of the same target?
The log2 fold change was inactive: 0.002.

And the log2 fold change [2]?
Its log2 fold change is inactive: -0.006.

And the log2 fold change (volasertib)?
The log2 fold change was inactive: -0.091.

What about the log2 fold change [3] of the same target?
The log2 fold change was inactive: -0.025.

And the log2 fold change [4]?
Its log2 fold change is inactive: -0.13.

What about the log2 fold change [5] of the same target?
The log2 fold change was inactive: 0.041.

What about the log2 fold change (saracatinib) of the same target?
Its log2 fold change is inactive: 0.013.

What about the log2 fold change (sotrastaurin) of the same target?
Its log2 fold change is inactive: 0.04.

How did the log2 fold change (vemurafenib) turn out when NDUFB8 (UniProt O95169) was run?
The log2 fold change was inactive: -0.04.

What about the log2 fold change [1] of the same target?
Its log2 fold change is inactive: -0.02.

What about the log2 fold change (barasertib) of the same target?
The log2 fold change was inactive: 0.018.

And the log2 fold change [2]?
The log2 fold change was inactive: -0.036.

And the log2 fold change (volasertib)?
Its log2 fold change is inactive: 0.054.

And the log2 fold change [3]?
Its log2 fold change is inactive: 0.

And the log2 fold change [4]?
The log2 fold change was inactive: -0.008.

What about the log2 fold change [5] of the same target?
Its log2 fold change is inactive: -0.049.

And the log2 fold change (saracatinib)?
The log2 fold change was inactive: 0.045.

What about the log2 fold change (sotrastaurin) of the same target?
The log2 fold change was inactive: -0.046.

Which results are given for NFIC (UniProt P08651)?
log2 fold change (vemurafenib): inactive: -0.071; log2 fold change [1]: inactive: 0.014; log2 fold change (barasertib): inactive: -0.106; log2 fold change [2]: inactive: 0.101; log2 fold change (volasertib): inactive: -0.001; log2 fold change [3]: inactive: -0.01; log2 fold change [4]: active: -0.453; log2 fold change [5]: inactive: 0.055; log2 fold change (saracatinib): inactive: 0.049; log2 fold change (sotrastaurin): inactive: -0.01

What does the source list for NDUFS8 (UniProt O00217)?
log2 fold change (vemurafenib): inactive: 0.003; log2 fold change [1]: inactive: 0.036; log2 fold change (barasertib): inactive: 0.09; log2 fold change [2]: inactive: -0.031; log2 fold change (volasertib): inactive: -0.007; log2 fold change [3]: inactive: 0.02; log2 fold change [4]: inactive: 0.028; log2 fold change [5]: inactive: -0.168; log2 fold change (saracatinib): inactive: -0.008; log2 fold change (sotrastaurin): inactive: 0.01

How did the log2 fold change (vemurafenib) turn out when NDUFAF5 (UniProt Q5TEU4) was run?
Its log2 fold change is inactive: -0.015.

And the log2 fold change [1]?
Its log2 fold change is inactive: 0.007.

And the log2 fold change (barasertib)?
The log2 fold change was inactive: -0.032.

And the log2 fold change [2]?
The log2 fold change was inactive: 0.127.

And the log2 fold change (volasertib)?
Its log2 fold change is inactive: 0.04.

And the log2 fold change [3]?
The log2 fold change was inactive: -0.103.

What about the log2 fold change [4] of the same target?
The log2 fold change was inactive: -0.052.

What about the log2 fold change [5] of the same target?
Its log2 fold change is inactive: 0.035.

What about the log2 fold change (saracatinib) of the same target?
The log2 fold change was inactive: 0.179.

And the log2 fold change (sotrastaurin)?
The log2 fold change was inactive: 0.

NHLRC2 (UniProt Q8NBF2) was tested. Which log2 fold change (vemurafenib) did it give?
The log2 fold change was inactive: 0.026.

And the log2 fold change [1]?
The log2 fold change was inactive: 0.015.

What about the log2 fold change (barasertib) of the same target?
The log2 fold change was inactive: 0.002.

And the log2 fold change [2]?
The log2 fold change was inactive: -0.07.

And the log2 fold change (volasertib)?
Its log2 fold change is inactive: -0.045.

And the log2 fold change [3]?
Its log2 fold change is inactive: 0.002.

What about the log2 fold change [4] of the same target?
Its log2 fold change is inactive: -0.027.

And the log2 fold change [5]?
Its log2 fold change is inactive: 0.06.

What about the log2 fold change (saracatinib) of the same target?
Its log2 fold change is inactive: -0.001.

And the log2 fold change (sotrastaurin)?
The log2 fold change was inactive: 0.001.

Which results are given for NECAP1 (UniProt Q8NC96)?
log2 fold change (vemurafenib): inactive: 0.026; log2 fold change [1]: inactive: 0.01; log2 fold change (barasertib): inactive: -0.011; log2 fold change [2]: inactive: 0.055; log2 fold change (volasertib): inactive: 0.017; log2 fold change [3]: inactive: -0.034; log2 fold change [4]: inactive: -0.144; log2 fold change [5]: inactive: 0.122; log2 fold change (saracatinib): inactive: -0.013; log2 fold change (sotrastaurin): inactive: -0.043

NFU1 (UniProt Q9UMS0) was tested. Which log2 fold change (vemurafenib) did it give?
The log2 fold change was inactive: 0.003.

What about the log2 fold change [1] of the same target?
Its log2 fold change is inactive: -0.018.

What about the log2 fold change (barasertib) of the same target?
The log2 fold change was inactive: 0.246.

And the log2 fold change [2]?
The log2 fold change was inactive: 0.071.

What about the log2 fold change (volasertib) of the same target?
Its log2 fold change is inactive: 0.03.

And the log2 fold change [3]?
Its log2 fold change is inactive: -0.014.

What about the log2 fold change [4] of the same target?
Its log2 fold change is inactive: 0.024.

What about the log2 fold change [5] of the same target?
Its log2 fold change is inactive: -0.125.

What about the log2 fold change (saracatinib) of the same target?
The log2 fold change was inactive: 0.016.

And the log2 fold change (sotrastaurin)?
The log2 fold change was inactive: -0.041.

Which log2 fold change (vemurafenib) does the source give for NDUFAF3 (UniProt Q9BU61) here?
Its log2 fold change is inactive: -0.016.

What about the log2 fold change [1] of the same target?
The log2 fold change was inactive: -0.008.

What about the log2 fold change (barasertib) of the same target?
Its log2 fold change is inactive: 0.151.

And the log2 fold change [2]?
The log2 fold change was inactive: -0.017.

What about the log2 fold change (volasertib) of the same target?
Its log2 fold change is inactive: -0.015.

And the log2 fold change [3]?
Its log2 fold change is inactive: 0.037.

What about the log2 fold change [4] of the same target?
The log2 fold change was inactive: -0.044.

And the log2 fold change [5]?
Its log2 fold change is inactive: -0.023.

What about the log2 fold change (saracatinib) of the same target?
The log2 fold change was inactive: -0.017.

And the log2 fold change (sotrastaurin)?
The log2 fold change was inactive: 0.007.

Which log2 fold change (vemurafenib) does the source give for NDOR1 isoform 2 (UniProt Q9UHB4) here?
Its log2 fold change is inactive: 0.012.

What about the log2 fold change [1] of the same target?
The log2 fold change was inactive: 0.036.

And the log2 fold change (barasertib)?
Its log2 fold change is inactive: 0.058.

What about the log2 fold change [2] of the same target?
The log2 fold change was inactive: 0.104.

What about the log2 fold change (volasertib) of the same target?
The log2 fold change was inactive: -0.048.

And the log2 fold change [3]?
Its log2 fold change is inactive: 0.

And the log2 fold change [4]?
The log2 fold change was inactive: -0.014.

And the log2 fold change [5]?
Its log2 fold change is inactive: 0.025.

What about the log2 fold change (saracatinib) of the same target?
The log2 fold change was inactive: 0.018.

And the log2 fold change (sotrastaurin)?
The log2 fold change was inactive: -0.012.

Which results are given for NGLY1 (UniProt Q96IV0)?
log2 fold change (vemurafenib): inactive: 0.015; log2 fold change [1]: inactive: 0.01; log2 fold change (barasertib): inactive: 0.043; log2 fold change [2]: inactive: -0.102; log2 fold change (volasertib): inactive: -0.034; log2 fold change [3]: inactive: 0.002; log2 fold change [4]: inactive: 0.09; log2 fold change [5]: inactive: -0.02; log2 fold change (saracatinib): inactive: 0.013; log2 fold change (sotrastaurin): inactive: 0.024
